Some entries share one result that the patent states for a list of compounds.
target: T1, TYK2 kinase domain (Homo sapiens, UniProt P29597); test: JAK1, JAK2 and TYK2 Inhibition Assay Protocol (Caliper LabChip, isolated kinase domain); format: biochemical; details: 1 nM purified TYK2 enzyme, 25 uM ATP, Morrison tight binding model
T1 construct: The activity of the isolated JAK1, JAK2 or TYK2 kinase domain was measured
T1 sequence (P29597 897-1176 limits assumed): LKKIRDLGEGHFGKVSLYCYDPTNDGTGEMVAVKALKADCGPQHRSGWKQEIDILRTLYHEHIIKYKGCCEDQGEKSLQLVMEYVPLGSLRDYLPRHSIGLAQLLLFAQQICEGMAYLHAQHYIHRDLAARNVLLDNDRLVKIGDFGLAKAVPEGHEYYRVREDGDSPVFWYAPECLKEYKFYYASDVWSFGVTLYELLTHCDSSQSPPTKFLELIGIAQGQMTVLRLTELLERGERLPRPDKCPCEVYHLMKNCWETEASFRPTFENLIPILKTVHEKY
Protocol: The activity of the isolated JAK1, JAK2 or TYK2 kinase domain was measured by monitoring phosphorylation of a peptide derived from JAK3 (Val-Ala-Leu-Val-Asp-Gly-Tyr-Phe-Arg-Leu-Thr-Thr) fluorescently labeled on the N-terminus with 5-carboxyfluorescein using the Caliper LabChip technology (Caliper Life Sciences, Hopkinton, Mass.). To determine the inhibition constants (Ki) of Examples 1-11, compounds were diluted serially in DMSO and added to 50 uL kinase reactions containing 1.5 nM JAK1, 0.2 nM purified JAK2 or 1 nM purified TYK2 enzyme, 100 mM Hepes pH7.2, 0.015% Brij-35, 1.5 uM peptide substrate, 25 uM ATP, 10 mM MgCl2, 4 mM DTT at a final DMSO concentration of 2%. Reactions were incubated at 22° C. in 384-well polypropylene microtiter plates for 30 minutes and then stopped by addition of 25 uL of an EDTA containing solution (100 mM Hepes pH 7.2, 0.015% Brij-35, 150 mM EDTA), resulting in a final EDTA concentration of 50 mM. After termination of the kinase reaction, the proportion of phosphorylated product was determined as a fraction of total peptide substrate using the Caliper LabChip 3000 according to the manufacturer's specifications. Ki values were then determined using the Morrison tight binding model. Morrison, J. F., Biochim. Biophys. Acta. 185:269-296 (1969); William, J. W. and Morrison, J. F., Meth. Enzymol., 63:437-467 (1979).

Ki, < 500 nM:
N#Cc1cccc(F)c1-c1nc2ccnc(NC(=O)C3CC3)c2[nH]1 [Example 11, N-(2-(2-cyano-6-fluorophenyl)-3H-imidazo[4,5-c]pyridin-4-yl)cyclopropanecarboxamide]
N#Cc1cccc(F)c1-c1nc2ccnc(Nc3cc(CO)ncn3)c2[nH]1 [Example 9, 3-fluoro-2-(4-(6-(hydroxymethyl)pyrimidin-4-ylamino)-3H-imidazo[4,5-c]pyridin-2-yl)benzonitrile]
CNc1cc(Nc2nccc3nc(-c4c(F)cccc4C#N)[nH]c23)ncn1 [Example 8, 3-fluoro-2-(4-(6-(methylamino)pyrimidin-4-ylamino)-3H-imidazo[4,5-c]pyridin-2-yl)benzonitrile]
CNc1cc(Nc2nccc3nc(-c4c(Cl)cccc4C#N)[nH]c23)ncn1 [Example 6, 3-chloro-2-(4-(6-(methylamino)pyrimidin-4-ylamino)-3H-imidazo[4,5-c]pyridin-2-yl)benzonitrile]
N#Cc1cccc(Cl)c1-c1nc2ccnc(Nc3cc(N)ncn3)c2[nH]1 [Example 2, 2-(4-(6-aminopyrimidin-4-ylamino)-3H-imidazo[4,5-c]pyridine-2-yl)-3-chlorobenzonitrile]
N#Cc1cccc(Cl)c1-c1nc2ccnc(Nc3cc(CO)ncn3)c2[nH]1 [Example 5, 3-chloro-2-(4-(6-(hydroxymethyl)pyrimidin-4-ylamino)-3H-imidazo[4,5-c]pyridin-2-yl)benzonitrile]
N#Cc1cccc(F)c1-c1nc2ccnc(Nc3cc(N)ncn3)c2[nH]1 [Example 1, 2-(4-(6-aminopyrimidin-4-ylamino)-3H-imidazo[4,5-c]pyridin-2-yl)-3-fluorobenzonitrile]
Cc1cc(Nc2nccc3nc(-c4c(Cl)cccc4C#N)[nH]c23)ncn1 [Example 3, 3-chloro-2-(4-(6-methylpyrimidin-4-ylamino)-3H-imidazo[4,5-c]pyridine-2-yl)benzonitrile]
Cc1cc(Nc2nccc3nc(-c4c(C#N)cccc4C#N)[nH]c23)ncn1 [Example 7, 2-(4-(6-methylpyrimidin-4-ylamino)-3H-imidazo[4,5-c]pyridine-2-yl)isophthalonitrile]
N#Cc1cccc(Cl)c1-c1nc2ccnc(NC(=O)C3CC3)c2[nH]1 [Example 10, N-(2-(2-chloro-6-cyanophenyl)-3H-imidazo[4,5-c]pyridin-4-yl)cyclopropanecarboxamide]
Cc1cc(Nc2nccc3nc(-c4c(F)cccc4C#N)[nH]c23)ncn1 [Example 4, 3-fluoro-2-(4-(6-methylpyrimidin-4-ylamino)-3H-imidazo[4,5-c]pyridine-2-yl)benzonitrile]

— patent US20140206702A1, “IMIDAZOPYRIDINE COMPOUNDS, COMPOSITIONS AND METHODS OF USE” (Genentech, Inc., priority 2012, published 2014)
